# PubChem BioAssay AID1259424 | University of Nebraska Medical Center, 2018
# Aim: 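Seek colon cancer survival genes behaving like KSR1, using a six-gene signature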 (primary screen)
# Cells: human HCT116 colon cancer cells
# Reagents: siRNA pool against human genes, 50 nM
# Measured: 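Six signature mRNAs by branched-DNA multiplex assay, scaled to two housekeeping genes and non-targeting median, log2; matched to mean KSR1 knockdown profile by Pearson correlation and euclidean distance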
# Scale: mean correlation with KSR1 profile and KSR1 correlation: higher = expression change more like KSR1 knockdown; mean distance from KSR1 profile: higher = expression change less like KSR1 knockdown
# The whole screen tested about 14,000 reagents; below is a part drawn at random. 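Higher correlation or smaller distance means closer resemblance to KSR1 loss; control wells, including KSR1 knockdowns, recur on many plates.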 Reagent sequences are not shown. The record does not give: the time to read-out.
target gene,mean correlation with KSR1 profile,mean distance from KSR1 profile,"KSR1 correlation, replicate 1","KSR1 correlation, replicate 2","KSR1 correlation, replicate 3"
CYBRD1,0.448,2.07,0.444,0.462,0.526
HSD17B8,0.628,0.947,0.407,0.66,0.469
TBC1D2,-0.438,2.65,-0.0805,-0.405,-0.593
CDCA8,-0.395,3.51,-0.0864,-0.39,-0.469
FRY,0.708,1.1,0.818,0.827,0.597
CTNNA3,-0.623,3.04,-0.511,-0.671,-0.676
FAM30A,0.00599,3.41,0.101,-0.017,0.0279
TRIM2,-0.8,2.66,-0.788,-0.778,-0.551
FAM20C,-0.661,2.31,-0.584,-0.493,-0.427
MED21,-0.508,2.88,-0.515,-0.41,-0.562
SERHL2,-0.153,1.95,-0.301,-0.281,-0.183
TAS1R2,0.17,1.71,0.257,0.252,0.297
FKBP1A,-0.365,1.71,-0.307,-0.216,-0.685
ITGB3BP,-0.236,0.871,-0.123,0.48,-0.42
ZC3H7B,0.27,1.44,0.283,0.297,0.105
MAML1,-0.248,2.2,-0.245,-0.529,-0.372
PITX3,0.218,1.85,0.0499,0.608,0.173
MID1IP1,-0.482,3,-0.658,-0.482,-0.277
MT-ND4L,-0.319,4.36,-0.332,-0.245,-0.429
BLOC1S4,-0.102,3.21,-0.203,-0.242,0.0465
ZNF41,0.036,3.18,-0.0804,-0.177,0.446
WDFY1,0.205,1.42,0.0947,0.341,0.12
EDDM3B,-0.402,3.94,-0.423,-0.591,-0.395
HSP90AA2P,-0.285,1.86,-0.369,-0.562,0.0645
OAZ1,0.486,0.835,0.478,0.303,0.488
BCL9,0.177,2.13,0.11,-0.0346,0.287
VPS51,-0.143,2.7,-0.273,0.029,-0.351
EGFL8,0.219,2.6,-0.126,0.196,0.268
PCGF1,0.446,1.35,0.388,0.447,0.463
EXOC6B,-0.473,2.58,-0.447,-0.27,-0.503
SPPL2A,0.529,1.71,0.274,0.379,0.712
DVL3,-0.805,2.56,-0.809,-0.647,-0.898
UGT1A3,0.845,0.467,0.812,0.811,0.764

Ordered by “KSR1 correlation, replicate 1” (low to high): 6 of the entries above.
target gene,mean correlation with KSR1 profile,mean distance from KSR1 profile,"KSR1 correlation, replicate 1","KSR1 correlation, replicate 2","KSR1 correlation, replicate 3"
TRIM2,-0.8,2.66,-0.788,-0.778,-0.551
FAM20C,-0.661,2.31,-0.584,-0.493,-0.427
MED21,-0.508,2.88,-0.515,-0.41,-0.562
FKBP1A,-0.365,1.71,-0.307,-0.216,-0.685
SERHL2,-0.153,1.95,-0.301,-0.281,-0.183
TAS1R2,0.17,1.71,0.257,0.252,0.297

The listing continues.
target gene,mean correlation with KSR1 profile,mean distance from KSR1 profile,"KSR1 correlation, replicate 1","KSR1 correlation, replicate 2","KSR1 correlation, replicate 3"
SART3,0.439,1.07,0.553,0.637,-0.216
LINC01565,-0.38,1.93,-0.569,-0.365,-0.229
LPCAT2,-0.551,4.64,0.176,-0.44,0.0948
PIGT,-0.189,3.95,-0.112,-0.237,-0.182
CDC26,-0.348,2.85,-0.435,-0.244,-0.459
APP,-0.297,2.92,-0.231,-0.19,-0.218
ABCC1,-0.288,1.8,0.0153,-0.508,-0.243
CPS1,-0.872,2.6,-0.482,-0.816,-0.786
S100A8,0.212,1.62,0.0606,-0.149,0.332
SCAND2P,-0.575,2.59,-0.444,-0.528,-0.691
SLC26A10P,0.301,2.41,0.279,0.0617,0.28
RPS26,0.173,1.42,-0.506,0.372,0.362
GPX7,-0.215,4.08,-0.167,-0.54,0.0882
TADA3,0.0695,2.91,0.0791,0.165,0.0504
UGT2B7,-0.296,4.23,-0.246,-0.312,-0.334
SLA2,0.0827,2.58,-0.0113,-0.0567,0.235
AMY2A,-0.366,1.87,-0.225,-0.422,-0.378
MPDU1,-0.196,4.2,-0.222,-0.099,-0.14
TXNL4A,-0.402,2.59,-0.166,-0.465,-0.454
ATP6V0A2,-0.119,1.31,-0.154,-0.345,0.212
DOCK6,-0.74,1.96,-0.768,-0.762,-0.593
FLVCR2,-0.338,4.13,-0.197,-0.349,-0.386
DST,-0.215,1.35,0.146,-0.443,-0.457
RNF141,-0.479,2.4,-0.563,-0.303,-0.333
KLF7,-0.0141,2.03,0.092,-0.0347,0.0563
TTYH3,-0.437,2.04,-0.627,-0.611,0.0749
SLC13A4,-0.38,2.15,-0.701,-0.141,-0.225
FAM169A,-0.311,1.7,-0.304,-0.486,-0.164
PCMTD2,-0.652,1.81,-0.637,-0.834,-0.552
PPOX,0.608,2.07,0.546,0.645,0.601
